# Results published in PubChem BioAssay AID485314 (National Center for Advancing Translational Sciences (NCATS), 2010).
# In all, about 340,000 compounds went through this assay and about 4,500 (1.3%) were called active. Inconclusive means that the source gave no clear call. Such entries were picked first, then a sample of the others. The call rests on the fitted dose curve; in most records, active means well fitted inhibition curve with a large enough effect; inconclusive means small, poorly fitted or top-dose-only effect, or another doubt; inactive means no such curve, though single readings can be large or run the other way. Potencies beside an inconclusive call are fits to weak or partial responses and may not hold up.
# Molecular target: DNA polymerase beta (Homo sapiens) (UniProt P06746)
# Experiment: qHTS Assay for Inhibitors of DNA Polymerase Beta
# Conditions: Pol beta primer extension/strand displacement, fluorescence kinetic; activity change, negative = inhibition: at 114 µM (top of the series)
# Method in brief: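 10 nM enzyme + cpd, 15 min RT; start with substrate 50 nM final; read 0 min and after 10 min RT. Corrected, normalized data; 4-parameter Hill curve fit.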
# On the % scale 0 is the no-effect control and ±100 the full control effect; potency means the concentration at half of the fitted maximal effect.
SMILES,Potency,"activity change, negative = inhibition"
O=C(Nc1ccc2oc(-c3cccnc3)nc2c1)c1cccc(Br)c1,"inconclusive: 56.2 µM [inhibitor, single point]",
Cc1cc(C)c(OCC(=O)OC(C)C(=O)NC2CC2)c(C)c1 (stereo unspecified),inactive,
CCN1C(=O)/C(=C2/Sc3ccccc3N2CCCS(=O)(=O)O)SC1=S,"inconclusive: 8.91 µM [inhibitor, full curve, poor fit]",
COc1ccc(CCN2C(=O)C(Oc3ccccc3C)C2c2ccc3c(c2)OCO3)cc1OC (stereo unspecified),"inconclusive: 39.8 µM [inhibitor, partial curve, poor fit]",
Cc1cccc(NC(=O)C(=O)NCC(c2ccc3c(c2)OCO3)N2CCOCC2)c1C (stereo unspecified),inactive,
CCc1ccc(C2c3c(-c4ccccc4O)n[nH]c3C(=O)N2Cc2ccncc2)cc1 (stereo unspecified),inactive,
COc1cc([N+](=O)[O-])ccc1NC(=O)C[n+]1cccc(C)c1,"inconclusive: 100 µM [inhibitor, single point]",
O=C(Nc1ccc2nc(-c3ccc4nc[nH]c4c3)[nH]c2c1)c1cccs1,active: 4.47 µM,
CN(C)c1ccc(/C=C/c2ccc3ccccc3[n+]2C)cc1,active: 17.8 µM,
COc1ccc(NC(=O)NCCc2cccc(Cl)c2)cc1OC,"inconclusive: 39.8 µM [inhibitor, single point]",
CC(=O)NCCc1ccc(S(=O)(=O)Nc2cccnc2)cc1,"inconclusive: 89.1 µM [inhibitor, single point]",
Cc1cccc(/C=N/Nc2ccc3ccccc3n2)c1,"inconclusive: 100 µM [inhibitor, single point]",
O=C1c2cccc3c(N4CCCCC4)ccc(c23)C(=O)N1c1ccc(O)cc1,"inconclusive: 89.1 µM [inhibitor, single point]",
O=C(CSc1ncnc2sc3c(c12)CCC3)N1CCOCC1,active: 39.8 µM,
Cc1c(Cl)cccc1N=C(N)N=C(N)N,"inconclusive: 79.4 µM [inhibitor, single point]",
COCCn1cnnc1SCC(=O)Nc1ccccc1C(=O)Nc1ccc2c(c1)OCO2,"inconclusive: 63.1 µM [inhibitor, single point]",
COCC(=O)Nc1ccc(S(=O)(=O)NCC2CCCO2)cc1 (stereo unspecified),"inconclusive: 89.1 µM [inhibitor, single point]",
C=CCSc1nc2c(c(=O)[nH]c(=O)n2C)n1Cc1ccccc1,"inconclusive: 100 µM [inhibitor, single point]",
COc1ccc(/C=N/NC(=O)c2cc(-c3cccn3C)n[nH]2)cc1OC,active: 8.91 µM,
Cc1ccc(Cl)c2c1N[C@@H](c1ccc(C(=O)O)cc1)[C@H]1CC=C[C@@H]21,active: 15.8 µM,
CCS(=O)(=O)N1CCN(C(=O)c2ccco2)CC1,"inconclusive: 79.4 µM [inhibitor, single point]",
COc1ccc(OC)c(C(=O)CSc2nnc(Cc3cccs3)n2CCc2ccccc2)c1,"inconclusive: 0.708 µM [inhibitor, full curve, poor fit]",

SMILES,Potency,"activity change, negative = inhibition"
CCc1nnc(NS(=O)(=O)c2ccc(NC(=O)c3cc(Cl)ccc3Cl)cc2)s1,"inconclusive: 79.4 µM [inhibitor, single point]",
COc1ccccc1CNS(=O)(=O)c1cc(C(=O)Nc2cccc(C(F)(F)F)c2)ccc1F,inactive,
CC(=O)Nc1ccc(S(=O)(=O)N=S(C)C)cc1,,inconclusive: -31.8% [inhibitor]
NC(=O)C[C@@H]1NC(=O)CNC(=O)c2cc([N+](=O)[O-])cc(I)c2NCCC(C(N)=O)NC1=O (stereo partly specified),"inconclusive: 0.708 µM [inhibitor, full curve, poor fit]",
CC(=O)Nc1cccc(NC(=O)C(C)N2c3cccc4cccc(c34)S2(=O)=O)c1 (stereo unspecified),"inconclusive: 3.98 µM [inhibitor, partial curve, poor fit]",
COc1ccc(/C=C/C(=O)OCC(=O)NCc2ccco2)cc1OC,active: 39.8 µM,
CC(C)CC(NC(=O)c1cccs1)c1nnc(SCc2ccc(Cl)c(Cl)c2)n1C (stereo unspecified),"inconclusive: 89.1 µM [inhibitor, single point]",
Cc1ccnc(NS(=O)(=O)c2ccc(NC(=O)c3ccc(N4C(=O)CCC4=O)cc3)cc2)n1,"inconclusive: 17.8 µM [inhibitor, full curve, poor fit]",
Cc1cc2ccccc2n1CCNC(=O)C(C)Oc1ccccc1 (stereo unspecified),"inconclusive: 89.1 µM [inhibitor, single point]",
NC(=O)c1ccsc1NC(=O)c1ccc(N2CCCC2=O)cc1,active: 31.6 µM,
CCCCCCCCCC(=O)Nc1cccnc1,"inconclusive: 3.55 µM [inhibitor, partial curve]",
O=C(NCc1ccc(F)cc1)c1ccc(CS(=O)(=O)c2ccc(Cl)cc2)o1,"inconclusive: 0.316 µM [inhibitor, full curve, poor fit]",
CCc1ccc(NC(=O)Cn2c(=O)c(-c3ccccc3NC(C)=O)nc3ccccc32)cc1,"inconclusive: 31.6 µM [inhibitor, single point]",
CCOC(=O)c1ccc(N2Cc3ccccc3C2)cc1O,"inconclusive: 35.5 µM [inhibitor, partial curve]",
CN(C)/C=C(\C#N)C(=O)c1cccnc1Oc1ccc(F)cc1F,"inconclusive: 25.1 µM [inhibitor, partial curve, poor fit]",
CCOc1ccc(-c2csc(NC(=O)c3ccco3)n2)cc1,"inconclusive: 63.1 µM [inhibitor, single point]",
C=CCOc1ccc(CNCc2cccnc2)cc1OCC,"inconclusive: 79.4 µM [inhibitor, single point]",
CCC1(c2ccccc2)NC(=S)N(c2cccc(C)c2C)N1 (stereo unspecified),inactive,
O=C(CSc1nc2ccccc2s1)c1cc2ccccc2o1,"inconclusive: 89.1 µM [inhibitor, single point]",
COc1ccc(-n2c(O)c(/C=C3\C=Nc4ccccc43)c(=O)[nH]c2=O)cc1,inactive,
CCS(=O)(=O)N1N=C(c2ccc(NS(C)(=O)=O)cc2)CC1c1ccccc1 (stereo unspecified),"inconclusive: 35.5 µM [inhibitor, single point]",
CC(C)C(=O)Nc1ccc(C(=O)NNC(=O)CCCOc2ccc(Cl)cc2Cl)cc1,"inconclusive: 2 µM [inhibitor, full curve, poor fit]",
CCc1ccc(C(C(=O)NC2CCCCC2)N(C(=O)c2csnn2)C2CC2)cc1 (stereo unspecified),inactive,
O=C(CC1N=C2c3ccccc3N=C(SCC(=O)Nc3cccc(Cl)c3)N2C1=O)NCc1cccs1 (stereo unspecified),inactive,

SMILES,Potency,"activity change, negative = inhibition"
CC(=O)Nc1ccc(Nc2nc(C)nc3c2oc2ccccc23)cc1,"inconclusive: 0.112 µM [inhibitor, full curve, poor fit]",
COc1cc2c(c(OC)c1OC)CCc1cnoc1-2,,inconclusive: -33.6% [inhibitor]
CC1CCN(CCc2nc3cc(NC(=O)COc4ccc(Cl)cc4)ccc3n2C)CC1,inactive,
CCCNC(=O)c1ccc2c(=O)c(O)c(-c3cccc(Br)c3)[nH]c2c1,inactive,
COc1ccc(N2Cc3cccc(C(=O)Nc4ccc(C(C)C)cc4)c3C2=O)cc1,active: 11.2 µM,
CCCCOC(=O)c1ccc(NC(=O)c2cc(-c3ccccc3)on2)cc1,inactive,
O=C(NC1C(=O)NNC1c1ccccc1)c1ccccc1 (stereo unspecified),inactive,
Cc1ccc2nc(NC(=O)c3ccc(-c4nc5ccccc5s4)s3)sc2c1,"inconclusive: 6.31 µM [inhibitor, full curve, poor fit]",
COc1ccc(C(=O)COC(=O)c2cccnc2Cl)c(OC)c1,active: 12.6 µM,
Cc1cccc(NC(=O)CSCc2nc3c(nnn3Cc3ccc(F)cc3)c(=O)[nH]2)c1C,inactive,
CCN(CC)CCNC(=O)c1ccc(NC(=O)c2cccc(S(=O)(=O)N3c4ccccc4CC3C)c2)cc1 (stereo unspecified),,inconclusive: -43.2% [inhibitor]
O=C(O)c1cccc(NC(=O)c2ccc(Cl)c(S(=O)(=O)N3CCCCCC3)c2)c1,"inconclusive: 0.562 µM [inhibitor, full curve]",
COc1ccc(NC(=O)C2CCN(C(=O)c3ccco3)CC2)c(OC)c1,inactive,
CCCCCC(=O)N1CC2(CC(c3cccc(NC(=O)[C@@H]4CCC(=O)N4)c3)=NO2)C[C@@H]1C(N)=O (stereo partly specified),inactive,
CN1/C(=C\C=C2/SC(=S)NC2=O)C(C)(C)c2ccccc21,active: 22.4 µM,
CCN(C(=O)CSC1=Nc2ccccc2C2CC=NN12)C1CCS(=O)(=O)C1 (stereo unspecified),"inconclusive: 89.1 µM [inhibitor, single point]",
Cc1ccc(N2NC(=O)/C(=C\c3cc4c(cc3[N+](=O)[O-])OCO4)C2=O)cc1C,active: 20 µM,
COc1ccc(C(CNC(=O)COc2ccccc2C)N2CCCC2)cc1 (stereo unspecified),"inconclusive: 89.1 µM [inhibitor, single point]",
COc1cc(/C=N/NC(=O)c2ccncc2)ccc1OCC(=O)Nc1ccc(C)c(C)c1,"inconclusive: 35.5 µM [inhibitor, partial curve]",
COc1ccc(C(C)(C)C)cc1NC(=O)c1cc(S(=O)(=O)N(C)C)ccc1N1CCCC1,"inconclusive: 89.1 µM [inhibitor, single point]",
O=C(CN1CCN(c2ccccn2)CC1)Nc1ccccc1F,"inconclusive: 44.7 µM [inhibitor, partial curve]",
COc1ccc(CNS(=O)(=O)c2cc(C(=O)Nc3cc(Cl)cc(Cl)c3)ccc2F)cc1,inactive,
CCCCCn1c(=O)[nH]c2cc(C(=O)NCc3ccccn3)ccc2c1=O,"inconclusive: 0.1 µM [inhibitor, full curve, poor fit]",
